Results are given in words; binding and its absence hold for the method and conditions named. Binding seen in cells or lysates may run through a third protein. Some entries that bind do so weakly or less than the wild type.

Sequences of proteins named here, by UniProt entry; tags and fusion partners are left off. Residues count along the entry.
UniProt P42685: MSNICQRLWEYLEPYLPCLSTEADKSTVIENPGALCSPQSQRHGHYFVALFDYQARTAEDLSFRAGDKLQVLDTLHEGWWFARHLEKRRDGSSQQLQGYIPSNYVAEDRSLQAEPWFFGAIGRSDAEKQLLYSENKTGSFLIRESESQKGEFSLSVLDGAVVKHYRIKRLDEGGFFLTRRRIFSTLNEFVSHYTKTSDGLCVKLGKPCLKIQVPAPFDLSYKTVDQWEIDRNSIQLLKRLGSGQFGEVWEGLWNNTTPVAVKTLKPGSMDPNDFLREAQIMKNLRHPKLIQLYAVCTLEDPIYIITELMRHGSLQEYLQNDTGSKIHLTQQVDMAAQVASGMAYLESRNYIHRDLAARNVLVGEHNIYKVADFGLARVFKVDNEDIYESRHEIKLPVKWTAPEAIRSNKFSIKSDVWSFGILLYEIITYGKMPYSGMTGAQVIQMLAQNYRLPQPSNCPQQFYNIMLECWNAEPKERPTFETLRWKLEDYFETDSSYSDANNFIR
UniProt Q922K9: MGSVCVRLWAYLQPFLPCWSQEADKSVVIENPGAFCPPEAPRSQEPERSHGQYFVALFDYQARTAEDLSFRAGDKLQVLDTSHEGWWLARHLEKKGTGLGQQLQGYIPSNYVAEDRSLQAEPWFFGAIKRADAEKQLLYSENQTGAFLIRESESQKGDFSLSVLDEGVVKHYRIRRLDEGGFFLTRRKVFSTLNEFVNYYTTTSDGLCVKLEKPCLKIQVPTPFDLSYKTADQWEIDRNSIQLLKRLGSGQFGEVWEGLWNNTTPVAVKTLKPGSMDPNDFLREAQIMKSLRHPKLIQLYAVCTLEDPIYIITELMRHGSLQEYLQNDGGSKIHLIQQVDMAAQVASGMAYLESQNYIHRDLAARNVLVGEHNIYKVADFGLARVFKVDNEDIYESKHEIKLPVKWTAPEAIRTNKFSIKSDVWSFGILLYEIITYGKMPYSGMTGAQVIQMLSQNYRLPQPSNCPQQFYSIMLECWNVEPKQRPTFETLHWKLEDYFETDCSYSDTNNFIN
UniProt P01024, residues 23-1663: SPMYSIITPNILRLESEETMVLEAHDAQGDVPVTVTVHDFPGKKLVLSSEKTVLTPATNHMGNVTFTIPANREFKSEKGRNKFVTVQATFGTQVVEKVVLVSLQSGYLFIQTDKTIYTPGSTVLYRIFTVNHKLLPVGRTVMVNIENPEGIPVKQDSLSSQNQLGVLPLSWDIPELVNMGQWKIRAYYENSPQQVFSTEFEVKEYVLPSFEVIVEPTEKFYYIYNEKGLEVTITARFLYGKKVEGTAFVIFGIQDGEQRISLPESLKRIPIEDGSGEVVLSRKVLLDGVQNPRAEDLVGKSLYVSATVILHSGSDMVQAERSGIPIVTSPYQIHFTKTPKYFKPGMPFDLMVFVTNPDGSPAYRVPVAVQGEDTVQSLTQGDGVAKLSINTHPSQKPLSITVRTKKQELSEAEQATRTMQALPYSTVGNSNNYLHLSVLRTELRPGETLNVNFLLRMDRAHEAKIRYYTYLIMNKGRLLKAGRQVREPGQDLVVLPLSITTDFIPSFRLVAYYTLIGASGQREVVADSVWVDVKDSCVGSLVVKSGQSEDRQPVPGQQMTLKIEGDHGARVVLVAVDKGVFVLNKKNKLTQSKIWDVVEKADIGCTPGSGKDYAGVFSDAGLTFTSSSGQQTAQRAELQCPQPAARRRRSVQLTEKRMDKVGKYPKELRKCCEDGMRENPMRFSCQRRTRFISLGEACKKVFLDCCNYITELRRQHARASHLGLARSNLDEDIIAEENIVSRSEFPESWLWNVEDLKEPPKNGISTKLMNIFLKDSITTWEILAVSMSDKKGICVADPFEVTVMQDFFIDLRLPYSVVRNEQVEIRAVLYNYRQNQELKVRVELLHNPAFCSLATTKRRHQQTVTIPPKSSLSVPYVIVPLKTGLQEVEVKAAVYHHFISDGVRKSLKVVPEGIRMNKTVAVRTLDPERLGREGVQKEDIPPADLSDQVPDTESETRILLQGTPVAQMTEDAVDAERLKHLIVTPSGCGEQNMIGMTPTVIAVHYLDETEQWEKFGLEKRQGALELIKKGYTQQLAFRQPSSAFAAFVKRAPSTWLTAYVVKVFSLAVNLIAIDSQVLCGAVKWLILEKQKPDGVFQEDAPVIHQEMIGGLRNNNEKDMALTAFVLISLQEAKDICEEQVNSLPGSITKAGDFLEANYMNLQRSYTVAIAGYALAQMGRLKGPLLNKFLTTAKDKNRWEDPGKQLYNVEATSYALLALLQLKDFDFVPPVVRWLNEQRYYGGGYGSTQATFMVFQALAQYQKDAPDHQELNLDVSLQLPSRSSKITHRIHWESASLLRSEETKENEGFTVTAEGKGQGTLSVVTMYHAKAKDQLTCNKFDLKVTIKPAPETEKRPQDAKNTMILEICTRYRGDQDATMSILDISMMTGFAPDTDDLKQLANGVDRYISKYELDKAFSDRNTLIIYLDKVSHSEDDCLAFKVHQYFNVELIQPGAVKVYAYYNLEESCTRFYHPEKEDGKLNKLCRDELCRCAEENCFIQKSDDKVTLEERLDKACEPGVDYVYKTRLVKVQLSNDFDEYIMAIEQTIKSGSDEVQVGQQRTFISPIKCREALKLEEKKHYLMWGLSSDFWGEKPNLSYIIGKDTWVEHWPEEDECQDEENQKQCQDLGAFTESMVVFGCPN
UniProt P01027, residues 25-1663: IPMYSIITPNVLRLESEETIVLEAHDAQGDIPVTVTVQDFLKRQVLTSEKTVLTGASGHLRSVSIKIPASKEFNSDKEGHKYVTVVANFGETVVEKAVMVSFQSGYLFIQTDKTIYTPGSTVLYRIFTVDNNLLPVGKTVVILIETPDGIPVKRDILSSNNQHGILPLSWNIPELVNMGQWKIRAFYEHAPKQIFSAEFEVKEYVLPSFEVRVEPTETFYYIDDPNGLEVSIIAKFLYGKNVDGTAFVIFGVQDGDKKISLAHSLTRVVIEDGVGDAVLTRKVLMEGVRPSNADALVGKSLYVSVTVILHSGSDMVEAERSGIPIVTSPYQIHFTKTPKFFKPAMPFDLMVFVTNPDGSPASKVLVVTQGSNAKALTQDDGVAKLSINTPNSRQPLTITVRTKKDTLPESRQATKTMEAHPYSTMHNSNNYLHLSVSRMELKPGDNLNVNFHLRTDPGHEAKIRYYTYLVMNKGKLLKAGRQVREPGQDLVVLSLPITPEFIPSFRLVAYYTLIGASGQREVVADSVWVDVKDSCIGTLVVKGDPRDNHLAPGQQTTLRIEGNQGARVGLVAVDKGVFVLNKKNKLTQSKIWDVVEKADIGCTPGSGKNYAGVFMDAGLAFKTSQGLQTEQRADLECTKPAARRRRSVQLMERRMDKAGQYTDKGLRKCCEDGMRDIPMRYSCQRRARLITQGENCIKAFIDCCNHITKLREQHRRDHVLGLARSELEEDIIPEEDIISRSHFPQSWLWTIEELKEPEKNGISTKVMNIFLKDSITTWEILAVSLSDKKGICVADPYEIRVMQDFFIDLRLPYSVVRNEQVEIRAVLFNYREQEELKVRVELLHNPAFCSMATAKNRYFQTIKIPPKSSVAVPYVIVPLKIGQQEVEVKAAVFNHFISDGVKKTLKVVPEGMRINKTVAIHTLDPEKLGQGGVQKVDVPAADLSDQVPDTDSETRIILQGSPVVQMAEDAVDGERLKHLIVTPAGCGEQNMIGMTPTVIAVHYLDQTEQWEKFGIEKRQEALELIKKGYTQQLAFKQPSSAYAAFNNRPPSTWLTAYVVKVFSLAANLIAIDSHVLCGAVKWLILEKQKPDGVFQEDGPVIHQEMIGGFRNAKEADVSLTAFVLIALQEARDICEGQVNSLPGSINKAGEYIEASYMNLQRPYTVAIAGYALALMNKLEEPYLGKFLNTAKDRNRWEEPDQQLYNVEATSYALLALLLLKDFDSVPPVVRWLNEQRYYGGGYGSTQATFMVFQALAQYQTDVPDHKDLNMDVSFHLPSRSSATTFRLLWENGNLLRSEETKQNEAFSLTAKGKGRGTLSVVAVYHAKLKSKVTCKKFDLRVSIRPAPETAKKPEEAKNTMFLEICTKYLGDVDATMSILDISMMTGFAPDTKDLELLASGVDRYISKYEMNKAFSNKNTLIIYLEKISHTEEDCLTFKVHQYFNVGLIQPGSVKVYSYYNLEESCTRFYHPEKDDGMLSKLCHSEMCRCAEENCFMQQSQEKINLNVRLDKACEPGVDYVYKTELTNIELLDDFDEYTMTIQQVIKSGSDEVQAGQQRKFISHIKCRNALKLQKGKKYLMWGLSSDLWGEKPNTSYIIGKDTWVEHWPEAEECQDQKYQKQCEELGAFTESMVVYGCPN

The target in assay [1] is human FRK expressed in INS-1 cells (human) (UniProt P42685). The assay can be described thus: proximity ligation; Duolink PLA in INS-1 cells expressing human C3 (stable or cotransfected WT or ΔATG1 plasmid) and transfected with human FRK plasmid; mouse anti-human C3/C3a and goat anti-FRK primary antibodies.
Assay [2] deals with mouse FRK, endogenous in pancreatic islets (mouse (endogenous in mouse islets)) (UniProt Q922K9). The assay can be described thus: proximity ligation; Naveniflex tissue PLA on freshly isolated, fixed and permeabilised primary mouse islets; rabbit anti-mouse FRK and goat anti-mouse C3 primary antibodies; C3 KO islets as negative control.

With “human C3, WT (canonical), expressed in INS-1 cells (from UniProt P01024 23-1663)”, the binding result in assay [1] was “binds”.

For the substance “mouse C3, endogenous in pancreatic islets (from UniProt P01027 25-1663)”, in assay [2], the binding result is on record as “binds”.

For the origin of these results see article PMC10895342.
